From publication doi:10.1101/2024.09.19.614015 (bioRxiv, 2024)
Like-named read-outs stand apart in the source and are kept apart here. These are yes or no findings as the source states them, for the method shown. Some results given as binding are weak or reduced against the parent protein; the word gives no strength.

Chains of the proteins cited; added tags and fusions are not shown.
UniProt P63871: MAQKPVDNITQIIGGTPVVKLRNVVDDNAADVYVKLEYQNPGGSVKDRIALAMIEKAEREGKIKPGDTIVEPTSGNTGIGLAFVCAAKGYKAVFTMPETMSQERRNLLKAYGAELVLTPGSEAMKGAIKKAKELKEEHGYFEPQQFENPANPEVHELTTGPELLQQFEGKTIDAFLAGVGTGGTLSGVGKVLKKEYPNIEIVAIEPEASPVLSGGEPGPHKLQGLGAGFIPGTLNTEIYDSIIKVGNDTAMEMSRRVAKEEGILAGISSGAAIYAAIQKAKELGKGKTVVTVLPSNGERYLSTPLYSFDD

Columns and labels:
Experiment in all cases: crystal structure
[1] = target: Staphylococcus aureus O-acetyl-L-serine sulfhydrylase (CysK) (S. aureus) (UniProt P63871)
[2] = target: Staphylococcus aureus O-acetyl-L-serine sulfhydrylase (CysK) (S. aureus) (UniProt P63871); remark: listed apart in the source
[3] = target: Staphylococcus aureus O-acetyl-L-serine sulfhydrylase (CysK) (S. aureus) (UniProt P63871); remark: listed apart in the source

| Molecule | binding [1] | binding [2] | binding [3] |
| --- | --- | --- | --- |
| Staphylococcus aureus O-acetyl-L-serine sulfhydrylase (CysK) (from UniProt P63871 1-310) (enzyme) | binds | binds | – |
| YMFYI [CymR 5] | – | – | binds |
| EDLDGYMFYI [CymR 10 (C-terminal decapeptide of S. aureus cysteine metabolism regulator CymR)] | – | – | binds |
